Data on one molecule can be found in patent publication US20070179094A1.

Amino acid sequences for entries named in this document (tags omitted). Residues count along the entry.
UniProt O43914, residues 22-113: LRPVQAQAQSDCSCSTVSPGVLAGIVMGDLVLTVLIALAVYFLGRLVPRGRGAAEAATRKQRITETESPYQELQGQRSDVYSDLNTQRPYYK

For assay [1], the target named is human DAP12 (human) (UniProt O43914). Description: co-immunoprecipitation from hMDL-1/DAP12 transfected 293 cells (FIG. 5B legend).
The target is the same in assay [2]. Kind of assay: co-immunoprecipitation: lysates of hMDL-1/hDAP12 expressing cells precipitated with rabbit α-hMDL-1 antibodies, immunoblot with anti-hDAP12 antibodies.

These are yes or no findings as the source states them, for the method shown. In cells and extracts the contact can be indirect. Some entries that bind do so weakly or less than the wild type.

B1: human MDL-1 (myeloid DAP12-associating lectin) (receptor)
chain: MNWHMIISGLIVVVLKVVGMTLFLLYFPQIFNKSNDGFTTTRSYGTVSQIFGSSSPSPNGFITTRSYGTVCPKDWEFYQARCFFLSTSESSWNESRDFCKGKGSTLAIVNTPEKLKFLQDITDAEKYFIGLIYHREEKRWRWINNSVFNGNVTNQNQNFNCATIGLTKTFDAASCDISYRRICEKNAK
Consider B1, for which the binding entry with human DAP12 (human) [1] and with human DAP12 (human) [2] was “binds” in each case.
